From PMC10794948
Results are given in words; binding and its absence hold for the method and conditions named. Binding can be weak; no strength is given. For some of these results: In cells and extracts the contact can be indirect. For some of these results: Where a sequence is shown, tags or fusion partners need not be part of it. Blank lines part the entries; values can stand above or below the molecule they belong to.

Columns and labels:
[1] = target: T1, SmDDA1b with GFP tag in pEAQ (eggplant (Solanum melongena)); experiment: co-IP; SmDDA1b-GFP and SmNAC-His co-expressed in N. benthamiana leaves; extract in 50 mM HEPES pH 7.5, 150 mM KCl, 1 mM EDTA, 1 mM DTT, 0.5% Triton X-100; precipitated with GFP antibody and Protein A+G agarose overnight at 4 C
T1 sequence: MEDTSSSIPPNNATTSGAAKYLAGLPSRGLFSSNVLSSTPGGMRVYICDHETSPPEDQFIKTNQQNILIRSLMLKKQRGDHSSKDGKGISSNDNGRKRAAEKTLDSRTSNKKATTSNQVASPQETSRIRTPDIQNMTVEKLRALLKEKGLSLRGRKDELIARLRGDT

[2] = target: SmDDB1 in pGBKT7 (eggplant (Solanum melongena)); experiment: two-hybrid; baits in pGBKT7 (SmNAC 1-139, SmDDB1), preys in pGADT7 (SmDDA1b, SmCUL4), Y2H Gold strain, Clontech kit 630489; SmDDA1b first found in a screen of an eggplant leaf cDNA library with SmNAC 1-139 as bait
[3] = target: SmNAC1-139 (N-terminal 139 aa of SmNAC) in pGBKT7 (eggplant (Solanum melongena)); experiment: as above
[4] = target: SmNAC in pSPYCE-35s/pUC-SPYCE (YCE) (eggplant (Solanum melongena)); experiment: split reporter; BiFC with split YFP (YNE/YCE) in agroinfiltrated N. benthamiana leaves, DsRed nuclear marker, with or without 50 uM MG132, dark, 22 C, 3 d, confocal microscopy

binding [1]: binds
Molecule: SmNAC with His tag in pEAQ (eggplant (Solanum melongena))

binding [2]: binds | binding [3]: binds
B1: SmDDA1b in pGADT7 (protein)
chain: T1 sequence

binding [4]: binds
B2: SmDDA1b in pSPYNE-35s/pUC-SPYNE (YNE) (protein)
chain: T1 sequence
